Reference: paper doi:10.1101/683052
No constants are given. Whether binding was seen depends on the method and setting. Some binding calls cover weakened binding; strength is not graded here.

Chains of the proteins cited; added tags and fusions are not shown. Lines headed by an entry give the natural chain unless they say otherwise; changes in a name come on top. Residues count along the entry.
UniProt Q9Y2I6, residues 1-702: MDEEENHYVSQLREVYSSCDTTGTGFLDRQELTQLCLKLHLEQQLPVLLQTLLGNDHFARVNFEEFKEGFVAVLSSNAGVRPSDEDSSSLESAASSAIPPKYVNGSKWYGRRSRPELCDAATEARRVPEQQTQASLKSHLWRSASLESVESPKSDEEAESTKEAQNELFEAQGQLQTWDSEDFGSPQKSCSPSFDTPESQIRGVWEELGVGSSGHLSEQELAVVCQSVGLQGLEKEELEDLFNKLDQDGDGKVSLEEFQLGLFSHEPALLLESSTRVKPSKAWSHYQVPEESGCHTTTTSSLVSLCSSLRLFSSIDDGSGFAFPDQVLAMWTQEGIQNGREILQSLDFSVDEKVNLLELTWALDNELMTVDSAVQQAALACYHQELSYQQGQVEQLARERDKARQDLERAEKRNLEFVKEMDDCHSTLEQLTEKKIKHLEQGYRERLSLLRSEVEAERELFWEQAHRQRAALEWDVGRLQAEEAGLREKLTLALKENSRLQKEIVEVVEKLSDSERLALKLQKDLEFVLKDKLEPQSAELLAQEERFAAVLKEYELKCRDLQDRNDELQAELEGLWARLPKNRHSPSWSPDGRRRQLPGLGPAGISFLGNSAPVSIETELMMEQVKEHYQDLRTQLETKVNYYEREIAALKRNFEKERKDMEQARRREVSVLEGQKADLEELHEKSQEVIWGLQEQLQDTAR
UniProt Q14204: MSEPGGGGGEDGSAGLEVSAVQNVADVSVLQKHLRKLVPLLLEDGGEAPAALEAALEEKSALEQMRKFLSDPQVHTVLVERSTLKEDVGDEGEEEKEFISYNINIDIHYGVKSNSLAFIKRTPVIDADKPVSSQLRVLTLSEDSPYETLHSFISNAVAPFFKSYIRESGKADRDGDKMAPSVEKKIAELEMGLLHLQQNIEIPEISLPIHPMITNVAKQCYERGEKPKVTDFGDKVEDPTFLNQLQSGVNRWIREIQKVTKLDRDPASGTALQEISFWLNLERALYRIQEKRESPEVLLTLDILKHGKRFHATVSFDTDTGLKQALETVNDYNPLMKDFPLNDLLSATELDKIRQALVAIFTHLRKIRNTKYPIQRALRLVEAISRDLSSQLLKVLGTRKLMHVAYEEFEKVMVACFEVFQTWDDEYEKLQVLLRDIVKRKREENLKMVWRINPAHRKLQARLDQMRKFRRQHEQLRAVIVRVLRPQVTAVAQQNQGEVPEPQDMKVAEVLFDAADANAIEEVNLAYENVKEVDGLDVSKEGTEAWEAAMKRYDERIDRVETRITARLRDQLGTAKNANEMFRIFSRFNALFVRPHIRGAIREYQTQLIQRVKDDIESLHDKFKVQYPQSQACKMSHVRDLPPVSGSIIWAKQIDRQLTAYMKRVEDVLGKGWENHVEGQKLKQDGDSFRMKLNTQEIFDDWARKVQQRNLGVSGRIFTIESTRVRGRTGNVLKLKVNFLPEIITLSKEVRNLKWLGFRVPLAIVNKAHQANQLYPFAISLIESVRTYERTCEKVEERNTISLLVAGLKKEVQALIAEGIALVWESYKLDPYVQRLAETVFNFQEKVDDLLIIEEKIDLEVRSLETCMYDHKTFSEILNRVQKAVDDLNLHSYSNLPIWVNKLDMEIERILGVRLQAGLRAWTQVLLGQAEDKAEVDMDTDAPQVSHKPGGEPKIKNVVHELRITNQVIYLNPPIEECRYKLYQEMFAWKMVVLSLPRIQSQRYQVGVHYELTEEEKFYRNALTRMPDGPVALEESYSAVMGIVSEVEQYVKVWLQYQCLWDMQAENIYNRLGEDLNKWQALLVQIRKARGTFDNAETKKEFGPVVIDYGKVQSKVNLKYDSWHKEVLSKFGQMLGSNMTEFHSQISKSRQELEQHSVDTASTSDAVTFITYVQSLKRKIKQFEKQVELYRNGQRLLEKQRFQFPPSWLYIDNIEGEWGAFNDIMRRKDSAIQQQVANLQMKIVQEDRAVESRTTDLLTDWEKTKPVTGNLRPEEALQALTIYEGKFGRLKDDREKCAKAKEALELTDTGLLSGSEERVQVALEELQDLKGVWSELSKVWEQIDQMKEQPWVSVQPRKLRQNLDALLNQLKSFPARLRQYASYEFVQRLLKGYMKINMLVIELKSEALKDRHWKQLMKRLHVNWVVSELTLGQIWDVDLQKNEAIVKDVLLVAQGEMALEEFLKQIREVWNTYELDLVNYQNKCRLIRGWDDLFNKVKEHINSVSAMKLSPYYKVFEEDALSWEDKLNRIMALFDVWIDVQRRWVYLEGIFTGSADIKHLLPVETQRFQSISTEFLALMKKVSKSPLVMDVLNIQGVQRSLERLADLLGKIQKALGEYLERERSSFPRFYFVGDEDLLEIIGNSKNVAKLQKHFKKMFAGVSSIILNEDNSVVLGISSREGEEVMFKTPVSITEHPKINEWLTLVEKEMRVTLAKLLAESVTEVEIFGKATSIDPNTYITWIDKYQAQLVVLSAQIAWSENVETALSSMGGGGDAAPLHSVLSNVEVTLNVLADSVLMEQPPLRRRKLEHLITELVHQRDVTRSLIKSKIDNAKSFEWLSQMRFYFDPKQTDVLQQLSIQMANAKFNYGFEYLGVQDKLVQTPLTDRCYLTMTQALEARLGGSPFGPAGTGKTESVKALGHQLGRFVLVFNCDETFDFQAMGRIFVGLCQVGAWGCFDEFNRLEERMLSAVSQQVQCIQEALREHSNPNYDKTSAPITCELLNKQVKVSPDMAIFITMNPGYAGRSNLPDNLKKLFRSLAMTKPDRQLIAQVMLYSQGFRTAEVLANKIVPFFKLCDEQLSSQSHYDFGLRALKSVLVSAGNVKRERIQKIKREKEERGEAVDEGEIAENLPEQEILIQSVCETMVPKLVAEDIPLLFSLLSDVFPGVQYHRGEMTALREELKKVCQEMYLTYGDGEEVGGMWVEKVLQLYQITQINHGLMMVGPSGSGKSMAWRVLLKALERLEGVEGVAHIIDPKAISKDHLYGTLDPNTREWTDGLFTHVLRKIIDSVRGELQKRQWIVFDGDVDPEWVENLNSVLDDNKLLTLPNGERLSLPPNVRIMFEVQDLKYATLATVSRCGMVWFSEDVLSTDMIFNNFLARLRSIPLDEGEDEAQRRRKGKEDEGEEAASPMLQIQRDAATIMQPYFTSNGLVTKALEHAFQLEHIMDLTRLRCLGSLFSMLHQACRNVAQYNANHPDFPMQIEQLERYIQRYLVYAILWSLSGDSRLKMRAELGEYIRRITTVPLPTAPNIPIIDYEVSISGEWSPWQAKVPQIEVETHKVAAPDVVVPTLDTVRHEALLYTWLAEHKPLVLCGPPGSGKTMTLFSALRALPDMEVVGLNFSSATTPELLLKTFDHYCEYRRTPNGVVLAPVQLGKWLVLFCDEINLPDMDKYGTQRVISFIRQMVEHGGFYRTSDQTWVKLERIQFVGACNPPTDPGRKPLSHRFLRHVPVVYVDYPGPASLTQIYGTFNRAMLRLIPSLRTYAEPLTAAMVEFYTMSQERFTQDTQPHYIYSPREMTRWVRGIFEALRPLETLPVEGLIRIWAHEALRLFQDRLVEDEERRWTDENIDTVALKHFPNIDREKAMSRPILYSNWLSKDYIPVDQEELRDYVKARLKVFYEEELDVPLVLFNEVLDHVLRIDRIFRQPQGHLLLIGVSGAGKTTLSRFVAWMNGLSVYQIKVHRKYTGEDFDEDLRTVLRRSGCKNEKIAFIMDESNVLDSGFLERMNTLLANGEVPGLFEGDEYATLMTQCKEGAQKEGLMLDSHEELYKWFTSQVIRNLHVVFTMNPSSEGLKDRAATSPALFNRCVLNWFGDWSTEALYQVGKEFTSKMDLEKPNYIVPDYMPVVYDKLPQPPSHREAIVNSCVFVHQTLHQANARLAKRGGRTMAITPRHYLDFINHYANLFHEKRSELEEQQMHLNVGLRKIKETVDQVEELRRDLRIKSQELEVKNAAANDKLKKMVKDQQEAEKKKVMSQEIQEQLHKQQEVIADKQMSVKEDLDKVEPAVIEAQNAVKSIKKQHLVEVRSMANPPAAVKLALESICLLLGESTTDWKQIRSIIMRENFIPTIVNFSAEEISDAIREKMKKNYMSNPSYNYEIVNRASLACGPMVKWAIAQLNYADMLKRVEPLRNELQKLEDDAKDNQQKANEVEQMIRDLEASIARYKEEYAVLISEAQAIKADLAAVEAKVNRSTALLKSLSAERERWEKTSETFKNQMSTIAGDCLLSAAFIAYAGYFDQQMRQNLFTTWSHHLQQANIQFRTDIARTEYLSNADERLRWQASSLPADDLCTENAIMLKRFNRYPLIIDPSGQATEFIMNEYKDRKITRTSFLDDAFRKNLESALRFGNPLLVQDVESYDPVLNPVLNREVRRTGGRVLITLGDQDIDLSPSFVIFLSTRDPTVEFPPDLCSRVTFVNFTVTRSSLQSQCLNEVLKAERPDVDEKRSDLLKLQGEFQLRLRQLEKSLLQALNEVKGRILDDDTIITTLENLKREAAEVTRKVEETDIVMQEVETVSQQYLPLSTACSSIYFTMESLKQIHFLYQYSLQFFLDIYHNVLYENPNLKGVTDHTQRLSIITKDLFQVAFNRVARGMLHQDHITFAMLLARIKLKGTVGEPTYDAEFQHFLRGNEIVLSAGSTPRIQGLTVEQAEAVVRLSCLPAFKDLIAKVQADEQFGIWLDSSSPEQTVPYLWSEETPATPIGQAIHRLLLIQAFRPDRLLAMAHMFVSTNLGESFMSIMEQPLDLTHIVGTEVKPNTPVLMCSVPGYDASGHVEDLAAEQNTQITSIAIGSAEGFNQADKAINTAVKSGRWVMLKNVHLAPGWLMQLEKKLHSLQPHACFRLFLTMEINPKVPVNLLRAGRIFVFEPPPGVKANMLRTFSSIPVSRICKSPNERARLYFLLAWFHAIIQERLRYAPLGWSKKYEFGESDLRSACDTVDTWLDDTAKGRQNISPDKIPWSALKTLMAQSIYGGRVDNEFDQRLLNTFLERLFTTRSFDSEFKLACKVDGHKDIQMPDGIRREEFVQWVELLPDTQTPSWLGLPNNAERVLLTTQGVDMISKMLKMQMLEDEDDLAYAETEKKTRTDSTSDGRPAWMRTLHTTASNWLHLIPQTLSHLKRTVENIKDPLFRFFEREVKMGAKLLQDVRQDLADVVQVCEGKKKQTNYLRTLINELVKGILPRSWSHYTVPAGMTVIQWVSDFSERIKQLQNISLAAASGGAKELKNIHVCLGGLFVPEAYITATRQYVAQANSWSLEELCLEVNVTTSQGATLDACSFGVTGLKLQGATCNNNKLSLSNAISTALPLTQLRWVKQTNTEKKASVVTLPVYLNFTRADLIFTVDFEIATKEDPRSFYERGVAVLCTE
UniProt Q13409: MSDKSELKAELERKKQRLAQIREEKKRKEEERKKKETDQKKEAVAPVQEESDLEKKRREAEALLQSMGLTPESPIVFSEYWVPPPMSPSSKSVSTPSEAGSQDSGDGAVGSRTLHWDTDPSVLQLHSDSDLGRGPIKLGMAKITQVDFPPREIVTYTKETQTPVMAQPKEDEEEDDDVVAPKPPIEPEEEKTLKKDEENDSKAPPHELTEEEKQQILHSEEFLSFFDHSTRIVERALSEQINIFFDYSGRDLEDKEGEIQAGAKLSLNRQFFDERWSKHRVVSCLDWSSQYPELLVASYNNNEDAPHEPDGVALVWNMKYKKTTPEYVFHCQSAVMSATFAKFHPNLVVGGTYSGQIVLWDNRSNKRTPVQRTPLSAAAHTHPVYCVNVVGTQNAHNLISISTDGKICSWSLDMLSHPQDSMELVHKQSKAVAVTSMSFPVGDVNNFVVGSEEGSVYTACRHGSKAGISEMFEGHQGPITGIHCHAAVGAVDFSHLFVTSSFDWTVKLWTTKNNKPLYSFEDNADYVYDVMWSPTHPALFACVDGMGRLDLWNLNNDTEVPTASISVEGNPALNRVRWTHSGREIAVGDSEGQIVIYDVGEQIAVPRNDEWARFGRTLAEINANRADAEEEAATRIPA
UniProt P63172: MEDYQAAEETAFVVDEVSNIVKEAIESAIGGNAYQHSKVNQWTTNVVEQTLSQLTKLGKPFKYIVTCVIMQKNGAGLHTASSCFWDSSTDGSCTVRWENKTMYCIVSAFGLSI
UniProt P63167: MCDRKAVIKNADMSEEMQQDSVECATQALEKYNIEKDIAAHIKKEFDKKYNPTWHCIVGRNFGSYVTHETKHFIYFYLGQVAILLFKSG
UniProt Q9NP97: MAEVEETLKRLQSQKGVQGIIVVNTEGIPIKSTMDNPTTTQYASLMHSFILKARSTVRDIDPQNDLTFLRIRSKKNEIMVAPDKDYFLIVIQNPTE

Target: Ninl (human Ninl aa 1-702), HaloTag (human) (UniProt Q9Y2I6)
Assay: pull-down

binding: binds
Substance: human full-length cytoplasmic dynein-1 (dynein), wild type (from UniProt Q14204;Q13409;O43237;P63172;P63167;Q9NP97) (complex)
